These are yes or no findings as the source states them, for the method shown. In cells and extracts the contact can be indirect. Some binding calls cover weakened binding; strength is not graded here.
Target: Ten-eleven translocation methylcytosine dioxygenase 2 (TET2) (human (endogenous in monocyte-derived tolDCs)) (UniProt Q6N021)
Experiment: co-IP

Amino acid sequences for entries named in this document (tags omitted).
UniProt P04150: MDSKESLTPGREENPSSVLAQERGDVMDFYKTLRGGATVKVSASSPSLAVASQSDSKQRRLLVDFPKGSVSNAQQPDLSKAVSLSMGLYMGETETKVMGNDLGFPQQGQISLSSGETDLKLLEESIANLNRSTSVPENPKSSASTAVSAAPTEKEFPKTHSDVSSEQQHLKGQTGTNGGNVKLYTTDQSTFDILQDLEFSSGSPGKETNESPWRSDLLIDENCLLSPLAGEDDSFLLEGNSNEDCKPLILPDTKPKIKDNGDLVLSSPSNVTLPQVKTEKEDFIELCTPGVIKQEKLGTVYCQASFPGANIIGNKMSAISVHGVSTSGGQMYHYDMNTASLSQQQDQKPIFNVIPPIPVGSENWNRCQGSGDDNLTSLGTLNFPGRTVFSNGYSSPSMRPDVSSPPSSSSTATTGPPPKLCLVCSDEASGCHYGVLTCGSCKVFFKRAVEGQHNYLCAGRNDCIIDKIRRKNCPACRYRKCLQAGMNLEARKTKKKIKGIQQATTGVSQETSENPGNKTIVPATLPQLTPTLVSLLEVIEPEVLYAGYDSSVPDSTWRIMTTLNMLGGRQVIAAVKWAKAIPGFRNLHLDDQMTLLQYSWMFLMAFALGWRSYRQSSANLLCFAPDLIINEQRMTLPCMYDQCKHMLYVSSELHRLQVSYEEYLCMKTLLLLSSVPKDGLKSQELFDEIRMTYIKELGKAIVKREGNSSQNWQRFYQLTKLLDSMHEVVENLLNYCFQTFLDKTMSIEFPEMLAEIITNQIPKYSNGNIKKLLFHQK
UniProt Q9Y5Q3: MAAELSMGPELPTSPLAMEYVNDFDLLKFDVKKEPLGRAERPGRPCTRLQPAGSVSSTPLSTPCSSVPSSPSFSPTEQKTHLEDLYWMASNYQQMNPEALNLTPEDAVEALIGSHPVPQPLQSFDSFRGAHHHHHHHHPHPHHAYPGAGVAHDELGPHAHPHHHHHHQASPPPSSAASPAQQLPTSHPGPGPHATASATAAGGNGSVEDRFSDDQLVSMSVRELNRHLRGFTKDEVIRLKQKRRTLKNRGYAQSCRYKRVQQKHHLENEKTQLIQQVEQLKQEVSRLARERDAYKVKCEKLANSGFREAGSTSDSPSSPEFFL

Row | Substance | binding
1 | Glucocorticoid Receptor (GR) (from UniProt P04150 1-777) | binds
2 | MAFB (from UniProt Q9Y5Q3 1-323) | binds

Reference: publication doi:10.1101/2021.07.27.453975
